Compound in this experiment: Nc1ncnc2c1ncn2[C@@H]1O[C@H](COP(=O)(O)OP(=O)(O)OP(=O)(O)O)[C@@H](O)[C@H]1O [adenosine triphosphate]
In words: NP40-soluble protein abundance relative to vehicle (solubility fold change) (ratio); higher = more soluble protein in presence of ATP. An outline of the steps:
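Each value is a fold change relative to the detergent-processed vehicle, calculated per replicate from vsn-normalised intensities. Jurkat crude lysate received eight concentrations (0.1 to 10 mM) for 10 min at room temperature and 3 min at 37 °C, then was solubilised in 0.8% NP40 with benzonase (60 min, 4 °C). The ultracentrifuged supernatant was TMT-labelled and run by LC-MS/MS in three independent experiments.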

Chains of the proteins cited; added tags and fusions are not shown. Lines headed by an entry give the natural chain unless they say otherwise; changes in a name come on top.
UniProt P39656: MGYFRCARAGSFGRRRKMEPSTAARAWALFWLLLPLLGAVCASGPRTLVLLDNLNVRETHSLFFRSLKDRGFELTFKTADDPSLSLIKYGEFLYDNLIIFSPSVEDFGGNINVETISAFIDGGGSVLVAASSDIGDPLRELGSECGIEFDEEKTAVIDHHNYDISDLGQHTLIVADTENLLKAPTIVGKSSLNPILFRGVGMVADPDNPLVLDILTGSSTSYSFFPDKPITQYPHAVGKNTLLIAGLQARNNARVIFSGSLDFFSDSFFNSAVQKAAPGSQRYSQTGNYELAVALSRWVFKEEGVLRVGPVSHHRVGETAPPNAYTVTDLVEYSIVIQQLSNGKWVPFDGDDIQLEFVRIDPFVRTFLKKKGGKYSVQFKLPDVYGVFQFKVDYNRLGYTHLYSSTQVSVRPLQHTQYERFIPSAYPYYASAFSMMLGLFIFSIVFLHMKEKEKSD
UniProt Q8IZQ5, whole entry, looked up: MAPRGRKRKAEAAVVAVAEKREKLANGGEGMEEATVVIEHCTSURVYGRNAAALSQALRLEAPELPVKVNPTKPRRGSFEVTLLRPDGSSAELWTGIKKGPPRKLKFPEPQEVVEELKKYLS
UniProt Q8IY67: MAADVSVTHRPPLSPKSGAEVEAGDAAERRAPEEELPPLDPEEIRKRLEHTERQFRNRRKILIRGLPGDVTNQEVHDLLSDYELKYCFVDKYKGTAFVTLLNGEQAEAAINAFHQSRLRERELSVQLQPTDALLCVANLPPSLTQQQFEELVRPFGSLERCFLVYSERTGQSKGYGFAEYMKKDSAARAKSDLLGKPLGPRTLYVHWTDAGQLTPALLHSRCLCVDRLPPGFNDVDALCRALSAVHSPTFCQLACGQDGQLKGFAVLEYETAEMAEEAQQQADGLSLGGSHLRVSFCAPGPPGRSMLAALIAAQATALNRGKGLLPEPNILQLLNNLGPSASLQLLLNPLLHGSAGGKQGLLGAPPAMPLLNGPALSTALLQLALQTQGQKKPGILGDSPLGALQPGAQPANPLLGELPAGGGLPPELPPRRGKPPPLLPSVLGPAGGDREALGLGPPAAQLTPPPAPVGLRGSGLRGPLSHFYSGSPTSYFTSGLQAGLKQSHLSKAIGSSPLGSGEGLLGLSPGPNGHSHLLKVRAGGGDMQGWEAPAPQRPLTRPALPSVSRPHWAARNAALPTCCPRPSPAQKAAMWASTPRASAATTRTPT
UniProt Q9Y4K4: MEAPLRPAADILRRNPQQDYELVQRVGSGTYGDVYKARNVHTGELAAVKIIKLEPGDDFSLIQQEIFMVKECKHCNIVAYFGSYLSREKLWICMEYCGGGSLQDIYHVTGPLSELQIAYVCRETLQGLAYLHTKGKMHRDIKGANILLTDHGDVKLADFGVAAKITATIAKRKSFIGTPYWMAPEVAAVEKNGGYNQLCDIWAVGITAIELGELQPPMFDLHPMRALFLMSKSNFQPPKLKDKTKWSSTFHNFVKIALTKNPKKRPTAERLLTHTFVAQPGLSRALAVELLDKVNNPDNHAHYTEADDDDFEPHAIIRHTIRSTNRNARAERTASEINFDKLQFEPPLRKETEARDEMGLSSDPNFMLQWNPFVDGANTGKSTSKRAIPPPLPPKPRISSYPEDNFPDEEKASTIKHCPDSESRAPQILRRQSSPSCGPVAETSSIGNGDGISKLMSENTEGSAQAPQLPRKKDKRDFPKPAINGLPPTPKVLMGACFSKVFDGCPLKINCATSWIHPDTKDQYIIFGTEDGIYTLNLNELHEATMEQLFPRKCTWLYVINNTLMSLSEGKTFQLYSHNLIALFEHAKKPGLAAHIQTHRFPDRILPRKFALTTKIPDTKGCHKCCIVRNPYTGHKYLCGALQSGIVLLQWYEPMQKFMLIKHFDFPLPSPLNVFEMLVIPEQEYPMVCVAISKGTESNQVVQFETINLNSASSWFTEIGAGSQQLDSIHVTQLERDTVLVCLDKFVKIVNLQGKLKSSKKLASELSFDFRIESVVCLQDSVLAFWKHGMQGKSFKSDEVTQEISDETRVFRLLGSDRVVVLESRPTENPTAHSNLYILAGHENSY
UniProt Q9NZM4: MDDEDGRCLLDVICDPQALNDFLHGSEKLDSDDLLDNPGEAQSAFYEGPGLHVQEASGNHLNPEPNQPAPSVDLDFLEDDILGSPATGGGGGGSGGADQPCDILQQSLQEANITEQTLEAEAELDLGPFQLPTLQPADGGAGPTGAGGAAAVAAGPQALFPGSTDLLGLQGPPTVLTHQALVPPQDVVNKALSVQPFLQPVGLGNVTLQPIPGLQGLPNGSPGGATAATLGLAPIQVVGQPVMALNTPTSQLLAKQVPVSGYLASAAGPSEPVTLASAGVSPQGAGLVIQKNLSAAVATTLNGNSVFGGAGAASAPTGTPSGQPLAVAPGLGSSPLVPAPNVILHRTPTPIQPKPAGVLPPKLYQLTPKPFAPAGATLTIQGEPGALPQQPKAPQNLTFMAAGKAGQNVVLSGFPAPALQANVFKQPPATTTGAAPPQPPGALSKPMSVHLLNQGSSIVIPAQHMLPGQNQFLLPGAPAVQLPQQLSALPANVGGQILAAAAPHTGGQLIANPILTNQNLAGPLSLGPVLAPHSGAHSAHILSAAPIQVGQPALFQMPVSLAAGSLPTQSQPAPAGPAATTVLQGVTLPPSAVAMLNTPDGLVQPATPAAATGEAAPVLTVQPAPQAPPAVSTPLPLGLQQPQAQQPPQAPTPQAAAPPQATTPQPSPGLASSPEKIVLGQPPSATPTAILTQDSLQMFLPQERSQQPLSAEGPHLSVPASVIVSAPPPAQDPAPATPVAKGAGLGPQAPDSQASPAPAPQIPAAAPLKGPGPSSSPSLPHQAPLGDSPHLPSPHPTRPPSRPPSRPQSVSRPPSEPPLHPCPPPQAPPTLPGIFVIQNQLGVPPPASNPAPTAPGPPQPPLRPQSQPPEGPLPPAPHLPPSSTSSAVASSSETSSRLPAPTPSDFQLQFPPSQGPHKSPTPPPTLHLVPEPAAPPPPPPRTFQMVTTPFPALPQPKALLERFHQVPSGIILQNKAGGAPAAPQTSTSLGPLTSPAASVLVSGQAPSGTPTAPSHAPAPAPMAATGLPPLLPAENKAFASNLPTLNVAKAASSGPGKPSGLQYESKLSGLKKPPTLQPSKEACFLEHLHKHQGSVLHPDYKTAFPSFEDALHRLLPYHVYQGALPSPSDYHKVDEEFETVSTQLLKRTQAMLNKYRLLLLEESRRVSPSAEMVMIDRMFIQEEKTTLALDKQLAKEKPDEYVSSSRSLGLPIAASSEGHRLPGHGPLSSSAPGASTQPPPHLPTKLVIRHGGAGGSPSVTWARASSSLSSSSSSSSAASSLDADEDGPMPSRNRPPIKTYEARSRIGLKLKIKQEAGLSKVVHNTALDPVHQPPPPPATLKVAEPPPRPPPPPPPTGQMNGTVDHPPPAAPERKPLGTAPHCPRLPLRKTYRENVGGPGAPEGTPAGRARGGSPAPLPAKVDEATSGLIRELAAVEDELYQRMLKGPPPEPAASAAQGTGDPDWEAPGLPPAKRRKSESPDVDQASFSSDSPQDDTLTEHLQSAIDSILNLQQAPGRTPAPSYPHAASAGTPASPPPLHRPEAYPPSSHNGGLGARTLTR
UniProt Q6NVY1: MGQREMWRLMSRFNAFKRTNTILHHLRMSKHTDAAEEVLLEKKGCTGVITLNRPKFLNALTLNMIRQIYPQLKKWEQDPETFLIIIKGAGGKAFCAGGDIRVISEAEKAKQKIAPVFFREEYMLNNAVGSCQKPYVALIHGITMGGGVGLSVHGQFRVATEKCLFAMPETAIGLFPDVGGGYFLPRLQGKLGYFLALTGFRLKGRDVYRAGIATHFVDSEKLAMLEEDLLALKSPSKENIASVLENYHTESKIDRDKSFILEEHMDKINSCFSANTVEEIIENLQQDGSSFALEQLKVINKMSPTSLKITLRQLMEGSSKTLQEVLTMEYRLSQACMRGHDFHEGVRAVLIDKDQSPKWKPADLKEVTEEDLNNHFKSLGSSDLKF
UniProt Q15185: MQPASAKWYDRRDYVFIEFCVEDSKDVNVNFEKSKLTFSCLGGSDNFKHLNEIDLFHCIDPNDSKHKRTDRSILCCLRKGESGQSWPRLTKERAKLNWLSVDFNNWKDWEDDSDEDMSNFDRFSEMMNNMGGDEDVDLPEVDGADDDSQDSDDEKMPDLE
UniProt Q8IWA4: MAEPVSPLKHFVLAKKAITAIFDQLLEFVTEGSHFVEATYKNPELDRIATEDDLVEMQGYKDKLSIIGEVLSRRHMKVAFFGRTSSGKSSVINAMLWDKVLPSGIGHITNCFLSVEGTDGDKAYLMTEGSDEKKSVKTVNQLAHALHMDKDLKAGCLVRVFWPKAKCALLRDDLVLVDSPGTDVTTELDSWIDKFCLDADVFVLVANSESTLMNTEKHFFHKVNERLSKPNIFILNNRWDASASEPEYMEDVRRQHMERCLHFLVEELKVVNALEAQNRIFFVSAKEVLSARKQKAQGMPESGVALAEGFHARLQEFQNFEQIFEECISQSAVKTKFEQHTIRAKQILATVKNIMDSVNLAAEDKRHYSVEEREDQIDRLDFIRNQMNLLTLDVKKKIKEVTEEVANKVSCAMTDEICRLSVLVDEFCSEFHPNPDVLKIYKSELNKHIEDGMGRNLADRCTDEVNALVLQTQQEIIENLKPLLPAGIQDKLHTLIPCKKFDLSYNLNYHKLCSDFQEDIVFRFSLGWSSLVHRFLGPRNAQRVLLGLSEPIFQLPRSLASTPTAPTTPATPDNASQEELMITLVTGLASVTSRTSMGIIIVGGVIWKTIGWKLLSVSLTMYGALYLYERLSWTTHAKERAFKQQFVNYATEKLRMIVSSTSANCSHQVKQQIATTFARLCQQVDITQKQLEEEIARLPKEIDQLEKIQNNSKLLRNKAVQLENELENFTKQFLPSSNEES
UniProt Q8IXJ6: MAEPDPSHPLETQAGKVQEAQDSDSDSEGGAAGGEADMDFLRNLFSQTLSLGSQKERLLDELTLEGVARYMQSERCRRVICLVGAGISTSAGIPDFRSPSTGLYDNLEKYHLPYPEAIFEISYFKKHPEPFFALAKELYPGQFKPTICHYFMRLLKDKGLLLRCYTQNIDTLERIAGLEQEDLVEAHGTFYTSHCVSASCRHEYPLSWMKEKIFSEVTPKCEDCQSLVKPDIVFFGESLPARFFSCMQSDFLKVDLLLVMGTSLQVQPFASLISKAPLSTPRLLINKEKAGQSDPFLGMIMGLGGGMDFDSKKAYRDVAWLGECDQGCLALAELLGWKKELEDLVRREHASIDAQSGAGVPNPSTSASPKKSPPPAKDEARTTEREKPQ
UniProt P28715: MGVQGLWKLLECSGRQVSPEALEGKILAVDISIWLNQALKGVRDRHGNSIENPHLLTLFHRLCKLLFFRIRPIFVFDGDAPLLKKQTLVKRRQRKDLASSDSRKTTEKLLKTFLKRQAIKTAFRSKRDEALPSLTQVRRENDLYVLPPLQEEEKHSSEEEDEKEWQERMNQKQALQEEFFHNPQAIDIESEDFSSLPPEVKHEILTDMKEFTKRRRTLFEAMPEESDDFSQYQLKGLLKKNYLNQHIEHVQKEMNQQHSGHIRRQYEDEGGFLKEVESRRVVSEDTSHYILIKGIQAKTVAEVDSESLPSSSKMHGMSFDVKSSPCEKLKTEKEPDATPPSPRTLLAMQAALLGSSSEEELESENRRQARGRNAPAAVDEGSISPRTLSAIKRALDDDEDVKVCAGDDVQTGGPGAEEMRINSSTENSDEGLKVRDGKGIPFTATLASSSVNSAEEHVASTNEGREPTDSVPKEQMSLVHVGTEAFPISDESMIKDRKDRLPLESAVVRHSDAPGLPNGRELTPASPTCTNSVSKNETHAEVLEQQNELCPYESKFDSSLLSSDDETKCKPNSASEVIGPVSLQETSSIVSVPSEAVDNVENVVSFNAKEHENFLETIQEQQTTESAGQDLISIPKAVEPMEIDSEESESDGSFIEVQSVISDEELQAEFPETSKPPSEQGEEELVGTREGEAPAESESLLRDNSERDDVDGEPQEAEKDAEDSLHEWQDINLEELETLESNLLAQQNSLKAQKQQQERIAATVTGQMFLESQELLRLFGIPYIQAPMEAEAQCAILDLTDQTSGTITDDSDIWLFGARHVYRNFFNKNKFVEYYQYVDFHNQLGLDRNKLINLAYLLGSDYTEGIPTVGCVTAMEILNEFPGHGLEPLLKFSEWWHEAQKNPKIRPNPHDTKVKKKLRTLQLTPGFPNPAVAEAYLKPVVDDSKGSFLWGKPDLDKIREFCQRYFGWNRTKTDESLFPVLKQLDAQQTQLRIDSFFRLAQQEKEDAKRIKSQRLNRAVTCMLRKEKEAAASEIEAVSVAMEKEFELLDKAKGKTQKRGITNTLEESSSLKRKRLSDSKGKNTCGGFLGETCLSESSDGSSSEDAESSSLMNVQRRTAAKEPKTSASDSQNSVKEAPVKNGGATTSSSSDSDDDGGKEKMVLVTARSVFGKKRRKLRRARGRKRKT

± gives the standard deviation of the averaged measurements. This is a selection; strong and weak results do not stand in their true shares.

With A0A0C4DGS1|P39656 (UniProt P39656), the NP40-soluble protein abundance by setting is: (concentration: 1mM) 1.04 ± 0.12; (concentration: 2mM) 1.01 ± 0.1; (concentration: 4mM) 0.985 ± 0.081; (concentration: 6mM) 0.92 ± 0.12; (concentration: 8mM) 0.999 ± 0.067; (concentration: 10mM) 0.983 ± 0.07.

For the target “A0A0D9SF54|A0A0D9SGF6|Q13813 and related entries (UniProt Q13813)”, the NP40-soluble protein abundance (concentration: 1mM) turned out to be 0.834 ± 0.022; the NP40-soluble protein abundance (concentration: 2mM) was found to be 0.898 ± 0.053; the NP40-soluble protein abundance (concentration: 4mM) was 0.898 ± 0.017; the NP40-soluble protein abundance (concentration: 6mM) came out at 1.05 ± 0.077; the NP40-soluble protein abundance (concentration: 8mM) amounted to 0.998 ± 0.038; the NP40-soluble protein abundance (concentration: 10mM) was 1.09 ± 0.051.

A0A087WYP2|Q8IZQ5 (UniProt Q8IZQ5): the NP40-soluble protein abundance reads like this: (concentration: 1mM) 1.05 ± 0.05; (concentration: 2mM) 1.12 ± 0.021; (concentration: 4mM) 1.12 ± 0.026; (concentration: 6mM) 1.08 ± 0.039; (concentration: 8mM) 1.13 ± 0.042; (concentration: 10mM) 1.12 ± 0.095.

A0A087WZ13|E9PAU2 (UniProt Q8IY67): the NP40-soluble protein abundance (concentration: 1mM) was 0.874 ± 0.019; the NP40-soluble protein abundance (concentration: 2mM) was found to be 0.884 ± 0.036; the NP40-soluble protein abundance (concentration: 4mM) amounted to 0.887 ± 0.022; the NP40-soluble protein abundance (concentration: 6mM) is 0.887 ± 0.011; the NP40-soluble protein abundance (concentration: 8mM) worked out at 0.898 ± 0.031; the NP40-soluble protein abundance (concentration: 10mM) was found to be 0.908 ± 0.024.

Consider “A0A087X0C8|O15484 and related entries (UniProt O15484)”, for which the NP40-soluble protein abundance was 1.027 ± 0.0097 (concentration: 1mM); 0.993 ± 0.055 (concentration: 2mM); 1.04 ± 0.049 (concentration: 4mM); 1.01 ± 0.025 (concentration: 6mM); 1.06 ± 0.038 (concentration: 8mM); 1.05 ± 0.034 (concentration: 10mM).

On to “A0A0C4DGT6|Q96AP0 and related entries (UniProt Q96AP0)”, for which the NP40-soluble protein abundance by setting is: (concentration: 1mM) 1.126 ± 0.0098; (concentration: 2mM) 1.1 ± 0.13; (concentration: 4mM) 1.15 ± 0.06; (concentration: 6mM) 1.14 ± 0.046; (concentration: 8mM) 1.13 ± 0.041; (concentration: 10mM) 1.23 ± 0.1.

For A0A0A0MS49|Q8TEH3 (UniProt Q8TEH3), the NP40-soluble protein abundance (concentration: 1mM) was determined as 1.04 ± 0.062; the NP40-soluble protein abundance (concentration: 2mM) was found to be 1.1 ± 0.036; the NP40-soluble protein abundance (concentration: 4mM) amounted to 1.08 ± 0.074; the NP40-soluble protein abundance (concentration: 6mM) was 1.09 ± 0.042; the NP40-soluble protein abundance (concentration: 8mM) worked out at 1.04 ± 0.053; the NP40-soluble protein abundance (concentration: 10mM) is 1.08 ± 0.033.

As for A0A0A0MQR1|Q9Y4K4 (UniProt Q9Y4K4), the NP40-soluble protein abundance by setting is: (concentration: 1mM) 1.02 ± 0.02; (concentration: 2mM) 1.02 ± 0.033; (concentration: 4mM) 1.02 ± 0.027; (concentration: 6mM) 0.968 ± 0.054; (concentration: 8mM) 1.02 ± 0.03; (concentration: 10mM) 1.01 ± 0.049.

On to “A0A087WWH3|Q9NZM4 and related entries (UniProt Q9NZM4)”, for which the NP40-soluble protein abundance came to 1.04 ± 0.14 (concentration: 1mM); 1.09 ± 0.087 (concentration: 2mM); 1.06 ± 0.099 (concentration: 4mM); 1.15 ± 0.17 (concentration: 6mM); 1.04 ± 0.087 (concentration: 8mM); 0.991 ± 0.08 (concentration: 10mM).

Regarding A0A087WXI1|Q6NVY1 (UniProt Q6NVY1), the NP40-soluble protein abundance stood at 1.01 ± 0.037 (concentration: 1mM); 0.981 ± 0.053 (concentration: 2mM); 0.967 ± 0.028 (concentration: 4mM); 0.973 ± 0.091 (concentration: 6mM); 0.968 ± 0.056 (concentration: 8mM); 0.949 ± 0.059 (concentration: 10mM).

In the case of A0A087WYT3|Q15185 (UniProt Q15185), the NP40-soluble protein abundance (concentration: 1mM) was 0.9303 ± 0.0027; the NP40-soluble protein abundance (concentration: 2mM) was determined as 0.922 ± 0.033; the NP40-soluble protein abundance (concentration: 4mM) came to 0.886 ± 0.064; the NP40-soluble protein abundance (concentration: 6mM) is 0.922 ± 0.02; the NP40-soluble protein abundance (concentration: 8mM) came to 0.862 ± 0.049; the NP40-soluble protein abundance (concentration: 10mM) was found to be 0.867 ± 0.059.

For the target A0A0C4DFN1|Q8IWA4 (UniProt Q8IWA4), the NP40-soluble protein abundance was 1 ± 0.025 (concentration: 1mM); 0.991 ± 0.038 (concentration: 2mM); 0.979 ± 0.041 (concentration: 4mM); 0.973 ± 0.064 (concentration: 6mM); 0.964 ± 0.035 (concentration: 8mM); 0.9814 ± 0.001 (concentration: 10mM).

Turning to “A0A087X0M0|Q7Z5L2 and related entries (UniProt Q7Z5L2)”, the NP40-soluble protein abundance (concentration: 1mM) was determined as 1.02 ± 0.036; the NP40-soluble protein abundance (concentration: 2mM) is 0.938 ± 0.02; the NP40-soluble protein abundance (concentration: 4mM) came out at 0.961 ± 0.033; the NP40-soluble protein abundance (concentration: 6mM) was 0.93 ± 0.052; the NP40-soluble protein abundance (concentration: 8mM) turned out to be 0.892 ± 0.047; the NP40-soluble protein abundance (concentration: 10mM) stood at 0.903 ± 0.087.

In the case of “A0A087WYM3|Q8IXJ6 and related entries (UniProt Q8IXJ6)”, the NP40-soluble protein abundance came out at 0.881 ± 0.023 (concentration: 1mM); 0.925 ± 0.045 (concentration: 2mM); 0.911 ± 0.022 (concentration: 4mM); 0.895 ± 0.064 (concentration: 6mM); 0.895 ± 0.035 (concentration: 8mM); 0.946 ± 0.041 (concentration: 10mM).

As to A0A087WUH0|P28715 (UniProt P28715), the NP40-soluble protein abundance stood at 0.973 ± 0.043 (concentration: 1mM); 0.974 ± 0.011 (concentration: 2mM); 0.996 ± 0.027 (concentration: 4mM); 1.02 ± 0.048 (concentration: 6mM); 0.986 ± 0.024 (concentration: 8mM); 0.992 ± 0.019 (concentration: 10mM).

As for A0A087X211|Q8TCG1 (UniProt Q8TCG1), the NP40-soluble protein abundance runs as follows: (concentration: 1mM) 1.03 ± 0.025; (concentration: 2mM) 0.97 ± 0.024; (concentration: 4mM) 0.958 ± 0.012; (concentration: 6mM) 0.993 ± 0.016; (concentration: 8mM) 0.9395 ± 0.006; (concentration: 10mM) 0.944 ± 0.017.

Source of the values: the supplement of paper PMC6411743.
